Experimental data taken from article PMC12040169 (PLOS Biology, 2025).
Some of the results follow.

Test system: T1, CTL2-GFP (C. trachomatis L2/434/Bu, GFP-expressing)
T1 construct: L2/434/Bu, GFP-expressing
Parameters: species or system HeLa; Intracellular C. trachomatis growth in HeLa cells, bulk GFP fluorescence relative to DMSO
Conditions: bulk GFP, single well; 28.5 h, 10 µM; inhibitor

First: Cc1cc(NC(=O)CSc2nc3c(c(C(F)(F)F)n2)CCc2ccccc2-3)n(-c2ccccc2)n1 [CBK266086]
Second: CC(Oc1ccccc1)C(=O)Nc1cccc(-c2nnc(-c3ccccc3)o2)c1 (stereo not drawn) [CBK262822]
The “% of control remaining” value of the first is higher: 173.893% for the first, 128.781% for the second.

Compared with `C(=C\c1nccnc1OCCn1cccc1)/c1ccccc1` [CBK106884], `Fc1cccc(-c2cncc(NCCc3c[nH]c4ccccc34)n2)c1` [CBK065288] is higher in “% of control remaining” value: 111.134% for the first, 124.853% for the second.

Compared with `O=C1CCC(=O)N1CCOc1nccnc1N1CCN(CC2CCCCC2)CC1` [CBK084306], `COc1ccc(COc2nccnc2N2CCCC2)cc1OC` [CBK116613] is higher in “% of control remaining” value: 114.866% for the first, 155.862% for the second.

First: O=C(Cn1c(C2CCOCC2)cc2cccnc21)NC1CCCC1 [CBK285157]
Second: Cc1cccnc1Nc1ccc(C2CCCN(C(=O)Cc3ccc4c(c3)CCCO4)C2)nc1 (stereo not drawn) [CBK285969]
The “% of control remaining” value of the first is lower: 118.197% for the first, 123.132% for the second.

Going from `CC(=O)OC(Cn1c2ccccc2c2ccccc21)Cn1c2ccccc2c2ccccc21` [CBK262307] to `COc1cccc2c1cc(C(=O)NCCCc1ccccn1)n2C` [CBK283283], the “% of control remaining” value rises from 101.252% to 141.694%.

First: COc1cccc2sc(N(Cc3cccnc3)C(=O)c3ccc(S(=O)(=O)N(C)C)cc3)nc12 [CBK294420]
Second: CC(=O)c1ccc(-c2cc(C(=O)NCCc3cccnc3)cnc2-c2ccc(F)cc2)s1 [CBK036614]
The “% of control remaining” value of the first is higher: 108.052% for the first, 75.16% for the second.

First: CC(C)(C)/N=C1/SCC(C)(/C=N\O)S1 (stereo not drawn) [CBK009726]
Second: CC(C)c1ccc(Cc2cnc(NC(=O)c3cc(Br)cs3)s2)cc1 [CBK300503]
The “% of control remaining” value of the first is lower: 98.8293% for the first, 159.328% for the second.

Going from `O=C(NCc1c(F)cccc1F)c1ccc2nc[nH]c2c1` [CBK153315] to `O=C(O)CCn1c(-c2ccc(F)cc2)cc2cccnc21` [CBK282583], the “% of control remaining” value falls from 118.924% to 105.979%.

First: COc1ccc(-c2cc3ncnc(Sc4nnnn4CC4CCCO4)c3s2)cc1 (stereo not drawn) [CBK297157]
Second: O=C1NC2=C(C(=O)N(CC3CCCO3)C2)C(c2ccccc2)N1 (stereo not drawn) [CBK283494]
The “% of control remaining” value of the first is higher: 109.571% for the first, 95.8593% for the second.

First: O=C(O)c1cc(Cl)c2c(c1)[C@@H]1C=CC[C@@H]1[C@H](c1cccc(Br)c1)N2 [CBK077927]
Second: O=C(O)c1cccc(NS(=O)(=O)c2cccc(S(=O)(=O)c3ccc(Cl)c(Cl)c3)c2)c1 [CBK261259]
The “% of control remaining” value of the first is higher: 112.772% for the first, 100% for the second.

Compared with `Cc1ccc(C2=CCN(CC(=O)Nc3ccc(N(C)C)cc3)CC2)o1` [CBK283604], `CCCOCC1CCN(C(=O)Nc2ccc(Oc3cccnc3)cc2)C1` (stereo not drawn) [CBK306799] is lower in “% of control remaining” value: 136.94% for the first, 86.328% for the second.

`O=[N+]([O-])c1cccc(/C=C/C=N/c2ccc3c(c2)S(=O)(=O)c2cc(/N=C/C=C/c4cccc([N+](=O)[O-])c4)ccc2-3)c1` [CBK261244] and `Cc1ccc2nc(/C(C#N)=C/c3ccc(-c4ccc(S(N)(=O)=O)cc4)o3)[nH]c2c1` [CBK266386] are the same in “% of control remaining” value: 100% for the first, 100% for the second.

Going from `COCC(=O)N[C@H]1CC(C)(C)[C@@H]2C[C@@](C)(O)CC[C@]12CCC(=O)N1CCCC1` [CBK289043] to `OCC1(CNc2ncc(F)c(N3CCCC3)n2)CCCC1` [CBK307397], the “% of control remaining” value falls from 132.117% to 57.1017%.

Going from `COc1ccc(C(C)C)cc1-c1nccnc1NC1CCC(N)CC1` (stereo not drawn) [CBK036703] to `Cc1ccccc1NC1=NC(=O)C(CC(C)C)O1` (stereo not drawn) [CBK074902], the “% of control remaining” value rises from 78.5648% to 118.369%.

First: CCc1ccc(C(=O)NCCCN2CCOCC2)cc1 [CBK268144]
Second: O=C(NCCOc1ccccc1)N1CCCC(CO)C1 (stereo not drawn) [CBK156058]
The “% of control remaining” value of the first is higher: 100.794% for the first, 100% for the second.

First: CC1CCCCN1C(=O)CN1C(=O)N2CCN=C2c2ccccc21 (stereo not drawn) [CBK283921]
Second: Nc1cc(=O)[nH]c(SCC(=O)N2CCCc3ccccc32)n1 [CBK304576]
The “% of control remaining” value of the first is higher: 108.905% for the first, 103.225% for the second.

Compared with `O=C(O)CCCNc1ncnc2c1oc1ccccc12` [CBK287573], `O=C(CCCc1nc2ccccc2c(=O)[nH]1)NC(Cc1ccc(O)cc1)C(=O)O` (stereo not drawn) [CBK297130] is lower in “% of control remaining” value: 144.052% for the first, 100.267% for the second.

First: COC(=O)c1ccc(NS(=O)(=O)c2ccc(C)c(C(=O)O)c2)c(C)c1 [CBK296684]
Second: O=C(/C=C/c1ccc(Cl)cc1Cl)Nc1sc2c(c1C(=O)NCc1cccnc1)CCCC2 [CBK265497]
The “% of control remaining” value of the first is lower: 129.004% for the first, 132.805% for the second.

First: Cn1ncc2c(NCc3cccc(Cn4cncn4)c3)ncnc21 [CBK304241]
Second: CC(C)CSc1nc(O)cc(=O)n1Cc1ccccc1 [CBK291170]
The “% of control remaining” value of the first is lower: 87.9659% for the first, 93.3264% for the second.

With `COc1ccc(CN(Cc2ccc(NC(C)=O)cc2)[C@@H]2COC[C@H]2c2ccc(F)cc2)cc1` [CBK286488] the “% of control remaining” value was 63.2338%.
